One may read the IC50 as the concentration that gives 50% inhibition.

This is an account of results in ChEMBL document CHEMBL4196147, “Staurosporine Derivatives Generated by Pathway Engineering in a Heterologous Host and Their Cytotoxic Selectivity” (J Nat Prod, 2018).

The assay in a line: Cytotoxicity against human Huh7.5 cells assessed as decrease in cell viability after 48 hrs by MTT assay. It is filed as functional, cell-based. Conditions: Huh7.5, 48 h. (In general: Tetrazolium assays rely on reduction of a dye to a coloured formazan, in cell work by metabolically active cells.)

As to `CN[C@@H]1C[C@H]2O[C@@](C)([C@@H]1OC)n1c3ccccc3c3c4c(c5c6ccccc6n2c5c31)C(=O)NC4` [STAUROSPORINE], the IC50 was determined as 600 nM.
